# Measured data: PubChem BioAssay AID504793 (Drosophila RNAi Screening Center, 2011)
# Purpose: 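Knock-downs allowing continued mitosis even though DNA is damaged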 (primary screen)
# Cell system: Drosophila S2R+ cells
# Reagents: long dsRNA against Drosophila genes, about 0.25 µg dsRNA per well
# Time to read-out: 4 days of dsRNA, then 4 hours of drug before read-out
# Challenge: doxorubicin 0.5 µM for 4 hours to cause double-strand breaks, in cells also given a low, harmless dose of dsRNA against nbs to sensitise the assay
# Detection: 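Mitotic index as the number of phospho-histone H3-positive cells in each well following doxorubicin, given as raw counts without normalisation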
# Scale: mitotic cells: higher = more cells in mitosis, weaker G2 arrest
# Hit rule: 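a call needs confirmation in secondary tests, with other dsRNAs and a check of mitotic timing without damage, not just a high primary count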
# Calls: active = confirmed in follow-up tests; inactive = not confirmed
# In all, the deposit lists about 23,000 reagents; shown is an unselected part of those with a known target gene and a result. Over the whole deposit, 62 (0.27%) are marked active. 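Calls come from follow-up tests whose scores are not deposited, so confirmed genes may have low counts here; counts are not normalised per plate.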 Raw values are not corrected between plates. Names joined by + are all predicted targets of the reagent.
Gene,dsRNA,"mitotic cells, replicate 1","mitotic cells, replicate 2",activity call
DnaJ-1,DRSC11145,3,,inactive
CG10565,DRSC11620,2,,inactive
Acbp4,DRSC11023,3,,inactive
Acbp4,DRSC28938,9,,inactive
CG12860,DRSC06200,9,,inactive
CG12860,DRSC26264,8,,inactive
Fign,DRSC00592,3,,inactive
Flad2,DRSC02531,6,,inactive
Flad2,DRSC27627,7,,inactive
EloB,DRSC16663,8,,inactive
Cht5,DRSC16470,6,,inactive
Cht5,DRSC26080,6,,inactive
twz,DRSC04069,7,,inactive
twz,DRSC25832,4,,inactive
Dgk,DRSC05064,12,,inactive
Dgk,DRSC05065,9,,inactive
Dgk,DRSC06171,9,,inactive
Dgk,DRSC06782,16,,inactive
Dgk,DRSC25166,8,,inactive
Kah,DRSC07887,3,,inactive
Kah,DRSC08515,7,,inactive
Kah,DRSC25608,10,,inactive
Pgam5,DRSC18551,8,,inactive
CG15046,DRSC19622,12,,inactive
Pgk,DRSC23340,11,,inactive
Pgk,DRSC26595,7,,inactive
alien,DRSC03482,10,,active
CG7768,DRSC10914,9,,inactive
CG5516,DRSC15826,4,,inactive
CG5516,DRSC21753,5,,inactive
CG5516,DRSC27984,4,,inactive
CG13884,DRSC08354,5,,inactive
MCU,DRSC10339,7,,inactive
Bicra,DRSC14417,18,,inactive
Bicra,DRSC25127,11,,inactive
CG14495,DRSC06466,13,,inactive
Gr98c,DRSC22212,7,,inactive
Gr98c,DRSC26546,7,,inactive
mxt,DRSC25001,6,,inactive
pasha,DRSC15295,7,,inactive
pasha,DRSC27821,6,,inactive
slow,DRSC08589,1,,inactive
slow,DRSC08590,7,,inactive
slow,DRSC26083,6,,inactive
CG18641,DRSC00527,11,,inactive

An excerpt from the list above:
Gene,dsRNA,"mitotic cells, replicate 1","mitotic cells, replicate 2",activity call
Bicra,DRSC14417,18,,inactive
Bicra,DRSC25127,11,,inactive
CG14495,DRSC06466,13,,inactive
Gr98c,DRSC22212,7,,inactive
Gr98c,DRSC26546,7,,inactive

The listing continues:
Gene,dsRNA,"mitotic cells, replicate 1","mitotic cells, replicate 2",activity call
CG33969 + fbl,DRSC11886,4,,inactive
Mmp2,DRSC06698,6,,inactive
Mmp2,DRSC22024,14,,inactive
Mmp2,DRSC25458,11,,inactive
Pde11,DRSC02028,7,,inactive
Pde11,DRSC02460,5,,inactive
Pde11,DRSC26665,7,,inactive
CG13086,DRSC02190,9,,inactive
CG13086,DRSC27538,9,,inactive
CG18853 + phr,DRSC27486,4,,inactive
Ufsp1,DRSC04958,7,,inactive
Ufsp1,DRSC27352,10,,inactive
CNMaR,DRSC08992,7,,inactive
CNMaR,DRSC10224,6,,inactive
CG12075,DRSC17801,4,,inactive
CG12075,DRSC25257,14,,inactive
CG13743,DRSC22775,10,,inactive
CG13743,DRSC25575,1,,inactive
AttC,DRSC06886,9,,inactive
AttC,DRSC26453,6,,inactive
TwdlF,DRSC12225,9,,inactive
TwdlF,DRSC27258,12,,inactive
CG11353,DRSC08182,9,,inactive
CG7786,DRSC07045,3,,inactive
CG7786,DRSC26604,2,,inactive
Cpr47Eb,DRSC06345,8,,inactive
CG30350,DRSC07690,8,,inactive
Fntb,DRSC15244,4,,inactive
Fntb,DRSC28158,7,,inactive
nolo,DRSC03705,8,,inactive
nolo,DRSC03719,3,,inactive
nolo,DRSC03720,14,,inactive
miple1,DRSC08722,,,inactive
moody,DRSC18515,8,,inactive
TwdlM,DRSC15810,11,,inactive
Pex19,DRSC02839,4,,inactive
CG7024,DRSC18414,10,,inactive
CG7024,DRSC27277,5,,inactive
CG5466,DRSC23002,10,,inactive
CG5466,DRSC25795,1,,inactive
shn,DRSC05266,20,,inactive
shn,DRSC07681,7,,inactive
CG15423,DRSC00437,3,,inactive
CG15423,DRSC29587,4,,inactive
CG15282,DRSC23090,16,,inactive
CG15282,DRSC29233,6,,inactive
Amt,DRSC16055,4,,inactive
Amt,DRSC27970,7,,inactive
Gr39b,DRSC01848,5,7,inactive
Gr39b,DRSC26464,4,,inactive
SerRS-m,DRSC14096,6,,inactive
CG30495,DRSC06703,7,,inactive
CG30495,DRSC26893,8,,inactive
FoxK,DRSC24971,14,,inactive
CG3124,DRSC23062,6,,inactive
CG3124,DRSC26288,3,,inactive
Wbp2,DRSC25018,6,,inactive
CG1440,DRSC17915,10,,inactive
Met75Ca + Met75Cb,DRSC09549,6,,inactive
Met75Ca + Met75Cb,DRSC11221,5,,inactive
FASN1,DRSC00268,11,,inactive
FASN1,DRSC26498,9,,inactive
CG7300,DRSC03044,6,,inactive
CG7300,DRSC28239,,,inactive
CG14421,DRSC17918,18,,inactive
CG14421,DRSC25245,8,,inactive
